The source of these data is doi:10.1101/440297.

Amino acid sequences for entries named in this document (tags omitted).
UniProt P35637: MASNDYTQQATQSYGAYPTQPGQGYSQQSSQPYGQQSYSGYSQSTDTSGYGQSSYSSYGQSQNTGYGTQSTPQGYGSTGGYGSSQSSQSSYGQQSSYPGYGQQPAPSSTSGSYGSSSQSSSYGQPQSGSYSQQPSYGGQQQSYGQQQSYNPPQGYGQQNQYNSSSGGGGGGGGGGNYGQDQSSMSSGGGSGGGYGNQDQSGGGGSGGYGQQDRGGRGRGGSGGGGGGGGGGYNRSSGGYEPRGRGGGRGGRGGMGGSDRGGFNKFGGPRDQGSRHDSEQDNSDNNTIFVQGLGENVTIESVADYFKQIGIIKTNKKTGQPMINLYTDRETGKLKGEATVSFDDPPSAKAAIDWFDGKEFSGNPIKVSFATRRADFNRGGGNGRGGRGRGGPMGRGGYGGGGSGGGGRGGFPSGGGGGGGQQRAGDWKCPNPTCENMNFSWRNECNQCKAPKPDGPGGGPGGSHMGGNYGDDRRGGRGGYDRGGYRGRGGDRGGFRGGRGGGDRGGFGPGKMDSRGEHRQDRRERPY
UniProt P08621: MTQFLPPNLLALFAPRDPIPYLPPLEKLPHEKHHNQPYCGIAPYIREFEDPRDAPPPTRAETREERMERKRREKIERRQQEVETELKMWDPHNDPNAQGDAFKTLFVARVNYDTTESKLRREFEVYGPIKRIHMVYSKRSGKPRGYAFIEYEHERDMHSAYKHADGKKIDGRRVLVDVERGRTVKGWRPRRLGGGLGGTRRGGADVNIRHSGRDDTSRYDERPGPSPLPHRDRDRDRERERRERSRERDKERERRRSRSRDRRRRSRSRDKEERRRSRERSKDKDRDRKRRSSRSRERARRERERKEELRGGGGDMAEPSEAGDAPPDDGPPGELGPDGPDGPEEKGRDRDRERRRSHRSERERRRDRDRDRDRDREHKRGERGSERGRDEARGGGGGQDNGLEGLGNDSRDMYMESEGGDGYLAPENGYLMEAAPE
UniProt P09012: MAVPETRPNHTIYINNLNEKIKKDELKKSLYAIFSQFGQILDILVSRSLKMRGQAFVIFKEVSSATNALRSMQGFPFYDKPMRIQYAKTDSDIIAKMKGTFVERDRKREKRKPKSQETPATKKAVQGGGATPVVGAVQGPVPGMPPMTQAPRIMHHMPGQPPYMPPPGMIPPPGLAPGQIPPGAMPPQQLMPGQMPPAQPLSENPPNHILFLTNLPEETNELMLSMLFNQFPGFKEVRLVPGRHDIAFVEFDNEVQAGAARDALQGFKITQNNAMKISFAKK

For this assay, the target named is Fus (human (endogenous in HeLa)) (UniProt P35637). Description: co-IP.

No constants are given. Whether binding was seen depends on the method and setting. In cells and extracts the contact can be indirect. Some results given as binding are weak or reduced against the parent protein; the word gives no strength.

U1-70 (from UniProt P08621 1-437): the binding result is reported as “binds”.

Turning to U1-A (from UniProt P09012 1-282), the binding result is “binds”.

B1: HNRNPM (protein, UniProt P52272 1-730)
chain: MAAGVEAAAEVAATEIKMEEESGAPGVPSGNGAPGPKGEGERPAQNEKRKEKNIKRGGNRFEPYANPTKRYRAFITNIPFDVKWQSLKDLVKEKVGEVTYVELLMDAEGKSRGCAVVEFKMEESMKKAAEVLNKHSLSGRPLKVKEDPDGEHARRAMQKVMATTGGMGMGPGGPGMITIPPSILNNPNIPNEIIHALQAGRLGSTVFVANLDYKVGWKKLKEVFSMAGVVVRADILEDKDGKSRGIGTVTFEQSIEAVQAISMFNGQLLFDRPMHVKMDERALPKGDFFPPERPQQLPHGLGGIGMGLGPGGQPIDANHLNKGIGMGNIGPAGMGMEGIGFGINKMGGMEGPFGGGMENMGRFGSGMNMGRINEILSNALKRGEIIAKQGGGGGGGSVPGIERMGPGIDRLGGAGMERMGAGLGHGMDRVGSEIERMGLVMDRMGSVERMGSGIERMGPLGLDHMASSIERMGQTMERIGSGVERMGAGMGFGLERMAAPIDRVGQTIERMGSGVERMGPAIERMGLSMERMVPAGMGAGLERMGPVMDRMATGLERMGANNLERMGLERMGANSLERMGLERMGANSLERMGPAMGPALGAGIERMGLAMGGGGGASFDRAIEMERGNFGGSFAGSFGGAGGHAPGVARKACQIFVRNLPFDFTWKMLKDKFNECGHVLYADIKMENGKSKGCGVVKFESPEVAERACRMMNGMKLSGREIDVRIDRNA
Regarding B1, the binding result is on record as “binds”.
